58 compounds from PubChem BioAssay AID2685 (National Center for Advancing Translational Sciences (NCATS), 2010) can be followed below.

Some of the results follow. These are further read-outs of the screen, such as a control signal, another cell line or another target. No call is given for them. Compounds called inactive in the main read-out are mostly missing here. Words in brackets tell the shape of the fitted curve; partial curves, single points and poor fits give uncertain potencies.

A short description of this assay: qHTS Assay for Lipid Storage Modulators in Drosophila S3 Cells.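 As to cell number change: cells counted by Cell Tracker Red CMTPX staining in the red channel.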 The settings on record: BODIPY lipid droplet fluorescence, 18-24 h; for cell number change: measured here: cell count max response, cells fed with added oleic acid. In short, it runs like this: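 Drosophila S3 cells loaded with oleic acid (400 uM, as added) and compounds at several concentrations; lipid droplets imaged by 488-nm laser-scanning cytometry, 500–530 nm intensity and object ratio to cell channel. Percent activity normalized to 20 uM Triacsin C.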
In general terms: Quantitative high-throughput screening tests each substance at several concentrations.

[1] abbreviates: measured here: cell number channel AC50, cells fed with added oleic acid.
[2] abbreviates: measured here: lipid fluorescence (Fed channel) AC50, cells fed with added oleic acid.

Take `Cc1ccc(S(=O)(=O)N(C)C)cc1NC(=O)COC(=O)/C=C/c1cnc2ccccc2n1`: the cell number change came out at 17.3%. In addition, the AC50 under setting [1] is 0.00461 µM [rising, full curve, poor fit].
For `O=C(Nc1ccon1)c1ccc(Br)s1`, the cell number change was determined as 1.85%. Besides, the concentration at half-maximal activity (AC50) under setting [2] was 3.98 µM [falling, single point].
As for `CCN1C(=O)C2C(c3cccc(F)c3)NC(CC)(C(=O)OC)C2C1=O` (configuration not stated), the cell number change was -25.3%. Under setting [1], the half-maximal activity concentration (AC50) was 0.082 µM [falling, full curve, poor fit]. For the same compound, the concentration at half-maximal activity (AC50) under setting [2] was 0.731 µM [falling, full curve, poor fit].
Consider `CCCCNS(=O)(=O)c1ccc(S(=O)(=O)N2CCC3(CC2)OCCO3)cc1`, for which the cell number change was found to be 19.3%. For the same compound, the half-maximal activity concentration (AC50) under setting [2] was 6.51 µM [rising, single point].
`COc1ccc(CN(CCN2CCOCC2)C(=O)c2c(F)cccc2F)cc1OC`: the cell number change worked out at 66.9%. Under setting [1], the AC50 is 6.51 µM [rising, partial curve]. The half-maximal activity concentration (AC50) under setting [2] was 2.59 µM [rising, full curve, poor fit].
On to `O=C(NC(=O)c1ccccc1O)c1ccc(C(F)(F)F)cc1`, for which the cell number change was -45.2%. Besides, the concentration at half-maximal activity (AC50) under setting [2] was 18.4 µM [falling, partial curve, poor fit].
Consider `O=C(c1nc(-c2ccccc2)n(-c2ccccc2)n1)N1CCCCCC1`, for which the cell number change was determined as 10.3%.
The same measure, in the same setting: for `COc1ccccc1-n1c(-c2ccc(Cl)cc2)c[nH]c1=S` the value was -28.3%.
With `CC[n+]1c(/C=C/c2ccc(OC(C)=O)c(OC)c2)ccc2ccccc21`, the cell number change was 37.6%. Further, under setting [1], the AC50 is 5.17 µM [rising, full curve]. Besides, the concentration at half-maximal activity (AC50) under setting [2] is 6.51 µM [rising, single point].
Turning to `CCOC(=O)c1ccc(S(=O)(=O)N2CCN(S(=O)(=O)CC)CC2)cc1`, the cell number change was -2.01%. Further, the AC50 under setting [2] is 32.6 µM [rising, single point].
On to `O=C(NCc1ccccc1)c1ncn(Cc2ccccc2)c1C(=O)NCc1ccccc1`, for which the cell number change is -11.7%. Moreover, the AC50 under setting [2] is 0.00461 µM [falling, full curve, poor fit].
For `O=[N+]([O-])c1ccc(S(=O)(=O)NNC(=S)NCCc2ccccc2)cc1`, the cell number change came to 2.6%.
Take `CCN1CCc2c(C#N)c(N3CCOCC3)nc(NCCO)c2C1`: the cell number change was 1.12%. For the same compound, the AC50 under setting [2] is 3.26 µM [rising, single point].
Turning to `CCN(CC)S(=O)(=O)c1ccc(NS(=O)(=O)c2ccc(C)c(C)c2)cc1`, the AC50 under setting [2] is 0.82 µM [rising, single point].
As to `COc1cccc(C(=O)Nc2cccc(-c3nc4ncccc4o3)c2C)c1`, the cell number change was -12.5%. The AC50 under setting [2] was 0.366 µM [rising, full curve].
As to `Cc1ncc([N+](=O)[O-])n1CCOC(=O)NC(Nc1ccc(F)cc1)C(Cl)(Cl)Cl` (configuration not stated), the cell number change is 3.21%. For the same compound, under setting [2], the AC50 was 0.326 µM [rising, full curve, poor fit].
On to `CC1CCC2CCCCC2N1C(=O)c1cc([N+](=O)[O-])cc([N+](=O)[O-])c1` (configuration not stated), for which the cell number change came out at 18.3%. For the same compound, the AC50 under setting [2] is 25.9 µM [rising, partial curve, poor fit].
Turning to `CCn1c(=O)c([N+](=O)[O-])c(N2CCOCC2)c2ccccc21`, the cell number change is -28.2%. Moreover, under setting [1], the AC50 was 3.26 µM [rising, partial curve]. The AC50 under setting [2] was 4.11 µM [rising, partial curve].
On to `O=C(NC(=S)Nc1ccccc1N1CCOCC1)c1ccccc1F`, for which the cell number change was -20.1%. Under setting [2], the AC50 is 25.9 µM [falling, partial curve, poor fit].
As for `CCCOc1ccc(C(=O)Nc2nc(C)c(Cc3ccc4c(c3)OCO4)s2)cc1`, the cell number change was -40.9%. Moreover, the AC50 under setting [1] was 18.4 µM [falling, partial curve]. Under setting [2], the concentration at half-maximal activity (AC50) was 0.103 µM [rising, full curve, poor fit].
With `C=CCN(CC=C)C(=S)NC(=O)/C=C/c1ccccc1`, the cell number change is 17.2%. For the same compound, the half-maximal activity concentration (AC50) under setting [2] is 3.26 µM [rising, full curve].
For the compound `CCOC(=O)c1c(C)n(O)c2ccc(Cl)cc2c1=O`, the cell number change is -8.02%. Moreover, the AC50 under setting [2] was 0.116 µM [rising, single point].
With `O=C(NCCN1CCOCC1)C1CCCN(S(=O)(=O)c2ccc(F)cc2)C1` (configuration not stated), the cell number change was found to be 13.9%. Besides, under setting [2], the AC50 was 10.3 µM [rising, partial curve, poor fit].
Take `O=C(CSc1nccc(=O)[nH]1)N1CCOCC1`: the cell number change was -6.44%.
As for `COc1ccc2nc(/C(C#N)=C\c3ccc(Oc4ccc([N+](=O)[O-])cn4)cc3)[nH]c2c1`, the cell number change was -16.3%. Under setting [1], the AC50 is 0.082 µM [rising, full curve, poor fit]. Besides, the concentration at half-maximal activity (AC50) under setting [2] was 10.3 µM [falling, partial curve].
With `CCn1ncc(Cl)c1C(=O)Nc1cc(Cl)ccc1Cl`, the cell number change was found to be 41.6%. Moreover, the AC50 under setting [1] was 23.1 µM [rising, single point]. Besides, the AC50 under setting [2] is 18.4 µM [rising, partial curve].
On to `COC(=O)[C@H](CCSC)NC(=O)NC1CCN(Cc2ccccc2)CC1`, for which the cell number change stood at 5.06%.
For the compound `OC1(c2cccc(C(F)(F)F)c2)CCN(c2ncnc3c2[nH]c2ccccc23)CC1`, the cell number change was -1.99%. The AC50 under setting [1] is 0.13 µM [falling, full curve, poor fit]. In addition, under setting [2], the half-maximal activity concentration (AC50) is 0.13 µM [falling, full curve, poor fit].
Turning to `COC(=O)c1cc(C(=O)OCC(=O)NCc2ccc3c(c2)OCO3)cc([N+](=O)[O-])c1`, under setting [2], the half-maximal activity concentration (AC50) was 0.82 µM [rising, single point].
For `Cc1sc2nc(C(C)(C)C)oc(=O)c2c1C`, the cell number change is -48.7%. In addition, the AC50 under setting [1] is 0.461 µM [falling, full curve]. Also, the concentration at half-maximal activity (AC50) under setting [2] was 20.6 µM [falling, single point].
`NC(=S)Nc1cccc2[nH]ccc12`: the cell number change is -9.93%.
For `CCOC(=O)/C(C#N)=C\c1ccc(OC)c(OC)c1`, the cell number change is 120%. Moreover, the concentration at half-maximal activity (AC50) under setting [1] was 20.6 µM [rising, single point].
Take `CC1CCC(NC(=O)Cn2cnc3sccc3c2=O)CC1` (configuration not stated): the cell number change amounted to 13.5%. Also, under setting [2], the AC50 was 0.82 µM [rising, single point].
As to `CCN(CC(=O)Nc1ccc(OC)cc1)C(=O)CSCC(=O)Nc1ccc(C)cc1`, the cell number change came out at 51.1%. For the same compound, the AC50 under setting [2] was 0.184 µM [rising, full curve].
Take `CC(=O)N1CCN(S(=O)(=O)c2ccc(F)c(Cl)c2)CC1`: the concentration at half-maximal activity (AC50) under setting [1] is 3.66 µM [falling, single point].
Turning to `CCCCOC(=O)c1cc(=O)[nH]c(=O)[nH]1`, the cell number change was -2.04%.
As to `C/C(=N\NC(=O)c1c(Br)c(C)nn1C)c1cccc(NC(=O)c2ccccc2F)c1`, the cell number change is -66.7%. For the same compound, the half-maximal activity concentration (AC50) under setting [1] was 23.1 µM [falling, partial curve]. Further, the AC50 under setting [2] is 29.1 µM [falling, single point].
Take `C=CCn1c(=N)n(CC(=O)c2ccccc2)c2ccccc21`: the cell number change stood at 45.3%. The AC50 under setting [1] is 16.4 µM [rising, partial curve, poor fit].
Turning to `Cc1cc(C)cc(NC(=S)N2CCN(c3ncc(C(F)(F)F)cc3Cl)CC2)c1`, the cell number change turned out to be 1.19%. Moreover, under setting [1], the AC50 was 2.91 µM [rising, partial curve]. Besides, under setting [2], the AC50 was 2.31 µM [rising, partial curve, poor fit].
Consider `Cc1ccc(NC(=O)c2ccccc2NS(=O)(=O)c2ccc(Cl)s2)cc1`, for which the cell number change was -16.7%. Further, under setting [1], the AC50 is 0.58 µM [falling, single point].
For the compound `Cc1c(C(=O)CN2CCCC(C)(C)C2)c2ccccc2n1C`, the cell number change is 20.9%. Also, the half-maximal activity concentration (AC50) under setting [2] is 0.0517 µM [rising, full curve, poor fit].
On to `CCC(=O)N1N=C(c2cccc(NS(C)(=O)=O)c2)CC1c1cccs1` (configuration not stated), for which the cell number change was 19.2%.
In the case of `CCOC(=O)C1(P(=O)(c2ccc(Cl)cc2)c2ccc(Cl)cc2)CCC1`, under setting [2], the half-maximal activity concentration (AC50) was 0.58 µM [falling, single point].
On the same count and under the same terms, as for `COC(=O)c1ccc(CSc2nc3ccc(C)cc3[nH]2)o1`, the figure is 3.66 µM [rising, partial curve].
Regarding `COc1ccc(C2CC(=O)C(CS(=O)(=O)c3ccccc3)C(=O)C2)cc1` (configuration not stated), the cell number change turned out to be 2.04%. In addition, under setting [2], the concentration at half-maximal activity (AC50) is 0.116 µM [rising, full curve, poor fit].
On to `COc1cc(C(C(=O)NC2CCCCC2)N(C(=O)c2snc(C(N)=O)c2N)c2ccc(C)cc2)ccc1O` (configuration not stated), for which the cell number change came to 21.4%. Also, the AC50 under setting [2] is 23.1 µM [rising, partial curve].
`CCOc1ccc(-c2cc(NC(=O)c3c(F)cccc3F)c(C(=O)O)s2)cc1`: under setting [1], the AC50 was 6.51 µM [falling, single point].
As to `CCN(CC)c1ccc(/C=C/C(=O)c2ccc(Br)cc2)cc1`, the cell number change was -96.9%. Under setting [1], the concentration at half-maximal activity (AC50) was 20.6 µM [falling, single point]. The AC50 under setting [2] was 20.6 µM [falling, single point].
On to `O=C(NCC1COc2ccccc2O1)c1ccc(-n2cncn2)c([N+](=O)[O-])c1` (configuration not stated), for which the cell number change was -16.3%. For the same compound, the half-maximal activity concentration (AC50) under setting [2] is 29.1 µM [falling, single point].
Consider `O=C(c1ccccc1)c1cnc(Nc2ccccc2Cl)s1`, for which the cell number change worked out at 17.2%. Also, under setting [2], the AC50 was 29.1 µM [rising, single point].
In the case of `O=C(Nc1ccccc1C(=O)N1CCOCC1)c1ccco1`, the cell number change is -41.2%. Also, the AC50 under setting [1] was 11.6 µM [falling, partial curve]. In addition, the concentration at half-maximal activity (AC50) under setting [2] was 11.6 µM [falling, partial curve].
`Cc1ccc(Sc2ccc(S(=O)(=O)Nc3ccc(CC(=O)O)cc3)cc2)cc1C`: the cell number change is 1.46%.
For `O=C(O)CCCSc1nccn1-c1ccccc1`, the half-maximal activity concentration (AC50) under setting [1] is 3.26 µM [falling, partial curve, poor fit].
Regarding `CSc1nc2[nH]c3c(c2c2nncn12)CC(C)(C)OC3`, the cell number change was 32.4%. Under setting [1], the AC50 is 1.64 µM [rising, partial curve, poor fit]. Moreover, the AC50 under setting [2] is 0.58 µM [rising, single point].
Regarding `COc1ccc(-n2ncc3c2CC(C)(C)CC3NC(=O)c2ccnn2C)cc1` (configuration not stated), under setting [2], the AC50 was 18.4 µM [falling, partial curve].
As to `OCC[C@H]1C[C@@H](O)[C@H](O)[C@@]2(OCc3ccccc32)O1`, the cell number change stood at 6.67%. Under setting [2], the half-maximal activity concentration (AC50) is 16.4 µM [rising, single point].
With `COc1ccc(S(=O)(=O)N(C)CC(=O)Nc2cccc(C(C)=O)c2)cc1Cl`, the half-maximal activity concentration (AC50) under setting [1] is 0.00517 µM [falling, full curve, poor fit].
`N/C(=N\N=C\c1ccco1)SC1CC(=O)N(c2ccc(C(=O)O)cc2)C1=O` (configuration not stated): the cell number change is -28.1%. Moreover, under setting [2], the AC50 is 14.6 µM [falling, partial curve].

In general, AC50 refers to the concentration at which the activity in the assay is half-maximal. A higher AC50 goes with activity only at high concentration.
